From paper PMC9445082 come the findings set out here.

By UniProt entry, the sequences of proteins in these tests, tags left out.
UniProt Q6RET7: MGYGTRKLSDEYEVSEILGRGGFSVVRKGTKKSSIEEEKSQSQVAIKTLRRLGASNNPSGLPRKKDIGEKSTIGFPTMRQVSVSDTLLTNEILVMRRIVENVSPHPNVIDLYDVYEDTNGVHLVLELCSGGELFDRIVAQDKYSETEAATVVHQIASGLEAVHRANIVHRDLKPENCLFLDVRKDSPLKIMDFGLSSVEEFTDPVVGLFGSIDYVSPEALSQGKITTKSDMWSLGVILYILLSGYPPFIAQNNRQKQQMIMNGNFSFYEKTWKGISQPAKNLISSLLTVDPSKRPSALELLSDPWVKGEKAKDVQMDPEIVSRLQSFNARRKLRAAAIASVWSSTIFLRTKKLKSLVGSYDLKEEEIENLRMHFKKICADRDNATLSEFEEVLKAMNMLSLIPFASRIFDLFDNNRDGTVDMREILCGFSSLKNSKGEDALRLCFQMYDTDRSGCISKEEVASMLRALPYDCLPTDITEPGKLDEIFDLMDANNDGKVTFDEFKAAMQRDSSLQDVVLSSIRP

Results are given in words; binding and its absence hold for the method and conditions named. In cells and extracts the contact can be indirect. Some binding calls cover weakened binding; strength is not graded here. Tags and fused reporters may be left off the sequences shown.

Assay [1] concerns the target T1, VPY-GFP (Medicago truncatula) (UniProt D3J162).
T1 sequence: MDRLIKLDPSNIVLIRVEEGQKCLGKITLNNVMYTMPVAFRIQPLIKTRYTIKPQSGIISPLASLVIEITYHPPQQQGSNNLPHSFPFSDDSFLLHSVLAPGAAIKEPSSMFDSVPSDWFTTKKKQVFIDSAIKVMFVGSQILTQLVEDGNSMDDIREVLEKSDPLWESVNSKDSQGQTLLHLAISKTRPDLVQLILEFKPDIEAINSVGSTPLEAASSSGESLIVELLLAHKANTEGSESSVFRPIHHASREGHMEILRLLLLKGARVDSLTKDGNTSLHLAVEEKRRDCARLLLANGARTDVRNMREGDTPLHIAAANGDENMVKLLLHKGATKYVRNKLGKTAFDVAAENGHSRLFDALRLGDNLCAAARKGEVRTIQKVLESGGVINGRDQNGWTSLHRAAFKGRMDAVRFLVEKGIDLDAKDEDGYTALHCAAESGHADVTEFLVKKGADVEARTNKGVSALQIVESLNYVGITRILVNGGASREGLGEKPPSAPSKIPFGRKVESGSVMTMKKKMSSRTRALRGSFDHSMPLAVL
Nature of the assay: co-IP; tagged proteins co-expressed in N. benthamiana leaves (agroinfiltration, 2 days); extract in 150 mM Tris-HCl pH 7.5, 150 mM NaCl, 10% glycerol, 10 mM EDTA, 0.1% Tween-20; GFP-tagged protein captured on GFP-Trap MA beads, 2 h at 4 °C; four washes; partner detected by western blot. (A western blot detects proteins with antibodies after separation by electrophoresis.)

Assay [2] addresses GFP-DMI3 (Medicago truncatula) (UniProt Q6RET7). Described as above.

Consider “DMI3-FLAG (from UniProt Q6RET7 1-523) (enzyme)”, for which the binding result in assay [1] is recorded as “binds”.

B1: VPY-HA (protein, UniProt D3J162 1-541)
chain: MDRLIKLDPSNIVLIRVEEGQKCLGKITLNNVMYTMPVAFRIQPLIKTRYTIKPQSGIISPLASLVIEITYHPPQQQGSNNLPHSFPFSDDSFLLHSVLAPGAAIKEPSSMFDSVPSDWFTTKKKQVFIDSAIKVMFVGSQILTQLVEDGNSMDDIREVLEKSDPLWESVNSKDSQGQTLLHLAISKTRPDLVQLILEFKPDIEAINSVGSTPLEAASSSGESLIVELLLAHKANTEGSESSVFRPIHHASREGHMEILRLLLLKGARVDSLTKDGNTSLHLAVEEKRRDCARLLLANGARTDVRNMREGDTPLHIAAANGDENMVKLLLHKGATKYVRNKLGKTAFDVAAENGHSRLFDALRLGDNLCAAARKGEVRTIQKVLESGGVINGRDQNGWTSLHRAAFKGRMDAVRFLVEKGIDLDAKDEDGYTALHCAAESGHADVTEFLVKKGADVEARTNKGVSALQIVESLNYVGITRILVNGGASREGLGEKPPSAPSKIPFGRKVESGSVMTMKKKMSSRTRALRGSFDHSMPLAVL
For B1, the binding entry in assay [2] is given as “binds”.
